From article doi:10.1101/2024.07.12.603229
Results are given in words; binding and its absence hold for the method and conditions named. In cells and extracts the contact can be indirect. Some entries that bind do so weakly or less than the wild type. Sequences can lack the tags named with a protein.

By UniProt entry, the sequences of proteins in these tests, tags left out. Residues count along the entry.
UniProt O22476, residues 24-1196: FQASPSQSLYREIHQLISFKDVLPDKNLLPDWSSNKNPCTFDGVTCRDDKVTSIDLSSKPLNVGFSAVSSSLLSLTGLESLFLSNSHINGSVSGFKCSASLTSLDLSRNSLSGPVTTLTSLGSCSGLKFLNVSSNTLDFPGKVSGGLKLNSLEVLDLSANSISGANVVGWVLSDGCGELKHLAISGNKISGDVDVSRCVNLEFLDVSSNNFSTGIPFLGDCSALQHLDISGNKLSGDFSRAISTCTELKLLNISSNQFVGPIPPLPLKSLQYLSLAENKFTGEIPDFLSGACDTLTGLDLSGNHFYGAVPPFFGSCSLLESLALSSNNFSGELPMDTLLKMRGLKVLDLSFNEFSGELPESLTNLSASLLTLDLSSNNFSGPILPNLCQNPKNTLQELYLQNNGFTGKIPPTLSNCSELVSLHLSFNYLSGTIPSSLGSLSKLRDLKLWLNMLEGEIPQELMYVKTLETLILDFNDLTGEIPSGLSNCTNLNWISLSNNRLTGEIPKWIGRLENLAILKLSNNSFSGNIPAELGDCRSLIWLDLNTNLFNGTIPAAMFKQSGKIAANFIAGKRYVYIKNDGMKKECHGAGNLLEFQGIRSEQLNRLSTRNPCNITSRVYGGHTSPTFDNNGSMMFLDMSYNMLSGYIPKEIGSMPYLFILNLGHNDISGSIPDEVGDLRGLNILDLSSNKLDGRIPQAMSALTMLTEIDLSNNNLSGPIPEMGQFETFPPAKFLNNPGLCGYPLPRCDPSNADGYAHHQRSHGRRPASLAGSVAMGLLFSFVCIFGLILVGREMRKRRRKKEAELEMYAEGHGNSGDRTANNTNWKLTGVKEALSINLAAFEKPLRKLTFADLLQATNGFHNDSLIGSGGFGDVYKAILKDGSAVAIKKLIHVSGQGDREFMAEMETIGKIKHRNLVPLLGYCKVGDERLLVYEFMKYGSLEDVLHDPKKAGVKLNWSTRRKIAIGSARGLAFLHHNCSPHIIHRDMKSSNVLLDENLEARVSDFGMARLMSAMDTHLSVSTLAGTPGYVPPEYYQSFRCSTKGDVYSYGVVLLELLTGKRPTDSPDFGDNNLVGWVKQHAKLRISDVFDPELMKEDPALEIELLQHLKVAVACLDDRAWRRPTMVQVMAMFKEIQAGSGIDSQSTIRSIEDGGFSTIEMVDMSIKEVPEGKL

Biological target: BRI1-mCitN (35S::BRI1-mCitN), BiFC fusion (Arabidopsis thaliana) (UniProt O22476)
Experiment: split reporter

| binding | Molecule |
| --- | --- |
| binds | BRI1-mCitN (35S::BRI1-mCitN), BiFC fusion (from UniProt O22476 24-1196) (receptor) |
| no binding | LecRK-I.9-mCitC (35S::LecRK-I.9-mCitC), BiFC fusion (receptor, UniProt Q9LSR8 22-766) QQETSFVYESFLDRQNLYLDKSAIVLPSGLLQLTNASEHQMGHAFHKKPIEFSSSGPLSFSTHFVCALVPKPGFEGGHGIVFVLSPSMDFTHAESTRYLGIFNASTNGSSSYHVLAVELDTIWNPDFKDIDHNHVGIDVNSPISVAIASASYYSDMKGSNESINLLSGNPIQVWVDYEGTLLNVSVAPLEVQKPTRPLLSHPINLTELFPNRSSLFAGFSAATGTAISDQYILWWSFSIDRGSLQRLDISKLPEVPHPRAPHKKVSTLIILLPVCLAILVLAVLAGLYFRRRRKYSEVSETWEKEFDAHRFSYRSLFKATKGFSKDEFLGKGGFGEVYRGNLPQGREIAVKRVSHNGDEGVKQFVAEVVSMRCLKHRNLVPLFGYCRRKRELLLVSEYMPNGSLDEHLFDDQKPVLSWSQRLVVVKGIASALWYLHTGADQVVLHRDVKASNIMLDAEFHGRLGDFGMARFHEHGGNAATTAAVGTVGYMAPELITMGASTGTDVYAFGVFMLEVTCGRRPVEPQLQVEKRHMIKWVCECWKKDSLLDATDPRLGGKFVAEEVEMVMKLGLLCSNIVPESRPTMEQVVLYLNKNLPLPDFSPYTLGIGTFAPVLVDASSLVVSSASWSLSGPSMSSSSPNHSPYAWQSTDQPWGQTIDTKNSLHIVAEPEKPSPAVKMVTLPAEDPQSNHSSISSQRVQPVKREKRRLHQILVAFPWINKQYFKLGLPKHIVHVSLFFFLQLARL |
